Assay [1] concerns the target eL24 (S. cerevisiae (endogenous in BY4741-derived yeast)) (UniProt P04449). The assay can be described thus: cryo-EM structure.
In assay [2] the target is eL22 (S. cerevisiae (endogenous in BY4741-derived yeast)). The assay can be described thus: cryo-EM structure.

Amino acid sequences for entries named in this document (tags omitted). A change or cut given only in a name is not applied to a line headed by its entry.
UniProt P04449: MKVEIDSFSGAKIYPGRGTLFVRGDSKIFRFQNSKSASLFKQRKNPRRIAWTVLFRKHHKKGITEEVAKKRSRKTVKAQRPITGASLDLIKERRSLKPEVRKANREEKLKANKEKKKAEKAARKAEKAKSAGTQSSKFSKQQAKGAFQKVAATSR

Results are given in words; binding and its absence hold for the method and conditions named. Binding calls can cover weak binding; strength is not graded here.

B1: Reh1 (protein, UniProt Q06709 1-432)
chain: MSSTFFTCNCCVIQFKTSDLQRYHMKTEWHRYNLKRRIANLPPIGAEQFAEKLQISEKEQAENQVDEFGFPVLKPVMNQSNALPQKQKKPIKSKRGRKVGTNLLKRKDRDIAKEKQNRSVSPSGSISSQLSNLTVGTENTNTDYGEDTVSEYGFTSDSNYEYATSDEELDIADKPSDKENEKITITECIYCGKDNKEVERNVKHMFSEHGLFIPERSYLIDLNGLLEFLIKMIVIDHNCLCCNFHGSGLESIRAHMASKRHCRLPYETKEERQLFAPFYDFTYDDHSISKNLQNDRAITSKLSSVYGAKNDEEDGEVDITLVSSENDINANYTTVSIDESGLELTLPTGARLGHRAGQRYYRQNLPSQPNPNESRRTITAADRRMVSGVTEKQYKKGMKKMQQLEKNAINTQIRREIKRVNFQTHYRDELLQ
As for B1, the binding entry in assay [1] and in assay [2] was “binds” throughout.

(Values after paper doi:10.1101/2025.10.29.685433.)
